This series concerns HP1γ. Description: MS/MS identification of citrullinated peptides. The arrangement: species or system mouse. To be noted: MS analysis.

Turning to heterochromatin protein 1 gamma [HP1γ], the “stoichiometry of HP1γ citrullination in mESCs” value was “very low percentage range”.

For the origin of these results see PMC6444592, “Citrullination of HP1γ chromodomain affects association with chromatin” (Epigenetics & Chromatin, 2019).
